Results on 47 molecules are retold here after the supplement of paper PMC7024190.

Structures are written as SMILES. Structures can show the parent of a compound that is named as a salt. Some of the results follow. Single values are uncertain here, since repeats match poorly.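 Human embryonic kidney cells were transiently transfected with a plasmid bearing a Renilla luciferase gene under the HSV-TK promoter. This first-round screen tests roughly ten thousand compounds for ones that increase reporter output.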

The test system of the assay is HEK 293FT. As to the kind of experiment: log relative Renilla luciferase luminescence (reporter expression vs reference, reference not stated) (log (base not stated)); higher = higher recombinant reporter expression. The conditions noted are these: 10 µM; time after transfection 48 h.
Regarding `CC(=O)O[C@]1(C(C)=O)CC[C@H]2[C@@H]3C=C(C)C4=CC(=O)CC[C@]4(C)[C@H]3CC[C@@]21C` [Megestrol acetate], the log is -0.0173.

With `CC[C@@]1(O)C(=O)OCc2c1cc1n(c2=O)Cc2cc3c(CN(C)C)c(O)ccc3nc2-1` [Topotecan], the log is -0.415.

As for `Nc1nnc(-c2cccc(Cl)c2Cl)c(N)n1` [Lamotrigine], the log was -0.0127.

In the case of `Clc1cc(Cl)c(OCC#CI)cc1Cl` [Haloprogin], the log is -0.162.

`Nc1nc(=O)[nH]cc1F` [Flucytosine]: the log was 0.126.

For `CC(=O)NC[C@H]1CN(c2ccc(N3CCOCC3)c(F)c2)C(=O)O1` [Linezolid], the log was -0.117.

As for `Cc1nccn1CC1CCc2c(c3ccccc3n2C)C1=O` (configuration not stated) [Ondansetron Hydrochloride], the log was 0.00137.

For the molecule `O=C1C(O)=C(O)C(=O)C(O)=C1O` [Tetrahydroxy-1,4-quinone monohydrate], the log was -0.157.

`COc1ccc2c(c1)c(CC(=O)OCC(=O)O)c(C)n2C(=O)c1ccc(Cl)cc1` [Acemetacin]: the log was determined as 0.156.

`CCOCCn1c(N2CCCN(C)CC2)nc2ccccc21` [Emedastine]: the log was 0.0346.

In the case of `CC1=C(C(=O)O)N2C(=O)[C@@H](NC(=O)[C@H](N)c3ccccc3)[C@H]2SC1` [Cephalexin monohydrate], the log is -0.0188.

`CC[C@H](C)C(=O)O[C@H]1C[C@H](O)C=C2C=C[C@H](C)[C@H](CC[C@@H](O)C[C@@H](O)CC(=O)O)[C@H]21` [Pravastatin]: the log came out at 0.0824.

On to `CC(C)(C)NCC(O)COc1cccc2c1CC(O)C(O)C2` (configuration not stated) [Nadolol], for which the log is -0.157.

Consider `CC(C)Cn1cnc2c(N)nc3ccccc3c21` [Imiquimod], for which the log is -0.259.

`NC(=O)N1c2ccccc2CC(=O)c2ccccc21` [Oxcarbazepine]: the log was -0.00375.

With `Cc1cccc(Nc2ccncc2S(=O)(=O)NC(=O)NC(C)C)c1` [Torsemide], the log amounted to 0.0241.

With `CC[N+](CC)(CC(=O)Nc1c(C)cccc1C)Cc1ccccc1` [Denatonium benzoate], the log was -0.834.

For the molecule `COc1cc(NS(=O)(=O)c2ccc(N)cc2)nc(OC)n1` [Sulfadimethoxine], the log is -0.0818.

`CC1(C)O[C@@H]2[C@@H](CO[C@@]3(COS(N)(=O)=O)OC(C)(C)O[C@@H]23)O1` [Topiramate]: the log is -0.144.

In the case of `CN(Cc1ccc(C(C)(C)C)cc1)Cc1cccc2ccccc12` [Butenafine Hydrochloride], the log is -0.0878.

With `S=c1[nH]cnc2nc[nH]c12` [Mercaptopurine], the log is -0.117.

Turning to `CCCCCCCCNC(C)C(O)c1ccc(SC(C)C)cc1` (configuration not stated) [Suloctidil], the log was -0.362.

For `CC(=O)CC(c1ccc([N+](=O)[O-])cc1)c1c(O)c2ccccc2oc1=O` (configuration not stated) [Acenocoumarol], the log is -0.309.

Regarding `COc1ccc2c3c1O[C@H]1C[C@@H](O)C=C[C@@]31CCN(C)C2` [Galanthamine hydrobromide], the log is -0.0328.

For the molecule `O=c1[nH]c(=O)n([C@H]2C[C@H](O)[C@@H](CO)O2)cc1C(F)(F)F` [Trifluridine], the log was determined as 0.0269.

For `Cc1nnc(SCC2=C(C(=O)O)N3C(=O)[C@@H](NC(=O)Cn4cnnn4)[C@H]3SC2)s1` [Cefazolin sodium salt], the log is -0.0706.

Take `CC(C)NC(=N)NC(=N)Nc1ccc(Cl)cc1` [Proguanil hydrochloride]: the log is -0.0733.

Regarding `C[C@]12CCC(=O)C=C1C=C[C@@H]1[C@@H]2CC[C@@]2(C)[C@H]1CC[C@@]21CCC(=O)O1` [Canrenone], the log is -0.179.

Regarding `NC(=O)OCC(O)COc1ccc(Cl)cc1` (configuration not stated) [Chlorphensin carbamate], the log is 0.0655.

With `CC1(C)S[C@@H]2[C@H](NC(=O)[C@H](N)c3ccccc3)C(=O)N2[C@H]1C(=O)OC1OC(=O)c2ccccc21` (some centres not stated) [Talampicillin hydrochloride], the log came to 0.00502.

As to `COCCOC(=O)C1=C(C)NC(C)=C(C(=O)OC(C)C)C1c1cccc([N+](=O)[O-])c1` (configuration not stated) [Nimodipine], the log was -1.52.

Turning to `CN1C(C(=O)Nc2ccccn2)=C(O)c2ccccc2S1(=O)=O` [Piroxicam], the log was determined as 0.0612.

With `COC(=O)CCc1ccc(OCC(O)CNC(C)C)cc1` (configuration not stated) [Esmolol hydrochloride], the log amounted to 0.0523.

Consider `NC(=O)c1ccc[n+]([C@@H]2O[C@H](COP(=O)([O-])OP(=O)(O)OC[C@H]3O[C@@H](n4cnc5c(N)ncnc54)[C@H](O)[C@@H]3O)[C@@H](O)[C@H]2O)c1` [Nadide], for which the log is -0.0609.

Consider `CNCCC=C1c2ccccc2C=Cc2ccccc21` [Norcyclobenzaprine], for which the log is -0.0865.

As for `Cc1ccc(C)c(OCCCC(C)(C)C(=O)O)c1` [Gemfibrozil], the log came out at 0.0127.

Regarding `O=C(CCCN1CCC(O)(c2ccc(Cl)cc2)CC1)c1ccc(F)cc1` [Haloperidol], the log is 0.102.

Take `NS(=O)(=O)Cc1noc2ccccc12` [Zonisamide]: the log was determined as 0.116.

As for `CN(C)CCN(Cc1ccc(Cl)cc1)c1ccccn1` [Chloropyramine hydrochloride], the log is -0.167.

`COc1ccc2c(c1)C(=O)N(CCc1ccc(S(=O)(=O)NC(=O)NC3CCCCC3)cc1)C(=O)C2(C)C` [Gliquidone]: the log was -0.0785.

`Cc1cn([C@H]2C[C@H](N=[N+]=[N-])[C@@H](CO)O2)c(=O)[nH]c1=O` [Zidovudine, AZT]: the log was -0.0275.

Consider `COc1ccc([C@@H]2Sc3ccccc3N(CCN(C)C)C(=O)[C@@H]2OC(C)=O)cc1` [Diltiazem hydrochloride], for which the log turned out to be 0.125.

As for `CC(C[N+](C)(C)C)OC(N)=O` (configuration not stated) [Bethanechol chloride], the log came out at 0.0496.

As to `COc1cccc(N(C)C(=S)Oc2ccc3c(c2)CCCC3)n1` [Liranaftate], the log is -1.17.

In the case of `NCCc1cc[nH]n1` [Betazole hydrochloride], the log worked out at 0.0303.

Consider `CCCNC(C)C(=O)Nc1c(C)csc1C(=O)OC` (configuration not stated) [Articaine hydrochloride], for which the log came out at 0.121.

Regarding `Cc1c(NC(C)C)c(=O)n(-c2ccccc2)n1C` [Isopyrin hydrochloride], the log is -0.145.
